According to PMC13158236:
These are yes or no findings as the source states them, for the method shown. In cells and extracts the contact can be indirect. Some results given as binding are weak or reduced against the parent protein; the word gives no strength. Blank lines part the entries; values can stand above or below the molecule they belong to.

Assays:
FLAG-ZBTB24 V43L (human) = FLAG-ZBTB24 V43L (human) (UniProt O43167); assay: co-IP; HEK293T co-transfected with Myc- and FLAG-tagged ZBTB24 plasmids, harvested after 48 h; lysis in 0.5% NP-40, 150 mM NaCl, 50 mM Tris-HCl pH 8.0; IP with anti-FLAG M2 affinity agarose for 1 h at 4°C; elution with 3xFLAG peptide; blot with anti-Myc and anti-FLAG
[1] = target: T1, full-length ZBTB24WT (human), O43167; assay: as above; conditions: remark: other sources report otherwise
T1 chain: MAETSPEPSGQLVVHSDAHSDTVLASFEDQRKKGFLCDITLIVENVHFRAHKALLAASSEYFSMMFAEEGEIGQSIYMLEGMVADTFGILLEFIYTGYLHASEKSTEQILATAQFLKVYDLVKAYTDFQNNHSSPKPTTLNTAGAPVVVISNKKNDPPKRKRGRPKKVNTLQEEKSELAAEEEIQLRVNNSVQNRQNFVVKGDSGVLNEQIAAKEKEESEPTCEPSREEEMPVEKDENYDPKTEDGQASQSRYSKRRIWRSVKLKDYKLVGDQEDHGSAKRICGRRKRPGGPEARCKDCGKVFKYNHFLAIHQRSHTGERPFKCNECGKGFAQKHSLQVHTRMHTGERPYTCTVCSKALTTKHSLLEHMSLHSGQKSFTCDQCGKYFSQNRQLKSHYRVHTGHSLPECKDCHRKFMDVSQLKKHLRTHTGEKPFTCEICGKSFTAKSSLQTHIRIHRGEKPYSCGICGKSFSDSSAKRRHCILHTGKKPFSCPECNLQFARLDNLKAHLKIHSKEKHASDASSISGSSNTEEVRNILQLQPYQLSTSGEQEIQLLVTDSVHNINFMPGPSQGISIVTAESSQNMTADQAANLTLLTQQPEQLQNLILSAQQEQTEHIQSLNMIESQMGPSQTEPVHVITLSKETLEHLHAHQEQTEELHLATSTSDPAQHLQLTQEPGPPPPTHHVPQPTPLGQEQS

binding (FLAG-ZBTB24 V43L (human)): binds
Molecule: full-length ZBTB24WT (from UniProt O43167-1 1-697)

binding [1]: binds
B1: full-length ZBTB24WT, O43167-1 1-697 (protein)
chain: T1 chain
